Reference: paper PMC6286129, “CryoEM structures of open dimers of gyrase A in complex with DNA illuminate mechanism of strand passage” (eLife, 2018)
The exact form of at least one protein or probe is not confirmed.

Molecular target: GyrA-ΔCTD, Dihedral complex (four open dimers) (UniProt A0A0Y2BJX7)
Assay: cryo-EM
Conditions: no glutaraldehyde, no antibiotics, C2 map 10.3 A, Assembly: 50 mM Tris-HCl pH 7.5, KCl (concentration not given), 5 mM DTT, 5% glycerol, 10 mM SrCl2, gradient: 50 mM Hepes pH 7.5, 55 mM KCl, recombinant protein

“TCGCGACGCGAGGCTGGATGGCCTTCCCCATTATGATTCTTCTC (double strand) [44 bp gyrase-binding DNA]”: binds.
